The supplement of paper PMC6411743
± gives the standard deviation of the averaged measurements. The list shows a part of the results.

The chains behind the UniProt entries cited, without tags or fusion partners. Where a name states a change or a piece, a line headed by the entry shows the natural chain unless it says otherwise.
UniProt Q969T9: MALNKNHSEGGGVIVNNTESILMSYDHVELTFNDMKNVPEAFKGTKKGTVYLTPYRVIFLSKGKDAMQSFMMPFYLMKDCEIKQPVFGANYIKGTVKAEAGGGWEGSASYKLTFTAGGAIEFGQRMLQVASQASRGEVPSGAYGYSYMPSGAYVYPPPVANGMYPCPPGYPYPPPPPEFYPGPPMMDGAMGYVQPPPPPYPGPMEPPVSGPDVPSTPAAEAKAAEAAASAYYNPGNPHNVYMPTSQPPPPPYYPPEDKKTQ
UniProt P51965: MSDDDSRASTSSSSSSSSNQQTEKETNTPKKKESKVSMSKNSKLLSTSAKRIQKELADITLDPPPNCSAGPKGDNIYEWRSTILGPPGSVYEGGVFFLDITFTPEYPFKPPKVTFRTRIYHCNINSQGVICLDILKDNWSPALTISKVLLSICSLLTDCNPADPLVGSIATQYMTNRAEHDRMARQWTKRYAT
UniProt A6NKF1: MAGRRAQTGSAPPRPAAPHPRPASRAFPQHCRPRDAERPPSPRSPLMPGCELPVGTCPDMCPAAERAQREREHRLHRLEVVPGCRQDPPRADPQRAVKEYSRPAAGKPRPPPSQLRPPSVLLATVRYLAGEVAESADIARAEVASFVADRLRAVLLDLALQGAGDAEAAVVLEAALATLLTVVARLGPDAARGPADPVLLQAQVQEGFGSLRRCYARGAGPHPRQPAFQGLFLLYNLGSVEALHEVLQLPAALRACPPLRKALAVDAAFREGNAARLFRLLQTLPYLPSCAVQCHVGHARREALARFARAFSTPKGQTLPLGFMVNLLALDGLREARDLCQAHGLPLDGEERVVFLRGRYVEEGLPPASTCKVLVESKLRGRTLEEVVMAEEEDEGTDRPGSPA
UniProt O95168, whole entry: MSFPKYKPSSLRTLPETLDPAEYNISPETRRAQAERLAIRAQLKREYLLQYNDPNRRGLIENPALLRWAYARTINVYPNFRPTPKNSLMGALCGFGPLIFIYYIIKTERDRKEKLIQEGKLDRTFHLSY
UniProt Q96GF1: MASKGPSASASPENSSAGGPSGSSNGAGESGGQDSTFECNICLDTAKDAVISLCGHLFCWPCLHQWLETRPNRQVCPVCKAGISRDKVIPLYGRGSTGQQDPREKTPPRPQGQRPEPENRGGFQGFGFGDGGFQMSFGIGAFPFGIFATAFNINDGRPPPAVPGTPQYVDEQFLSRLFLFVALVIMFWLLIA

Compound: Nc1nc2c(ncn2[C@@H]2O[C@H](COP(=O)(O)OP(=O)(O)OP(=O)(O)O)[C@@H](O)[C@H]2O)c(=O)[nH]1 [guanosine triphosphate]
Assay: NP40-soluble protein abundance relative to vehicle (solubility fold change) (ratio); higher = more soluble protein in presence of GTP
Method: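 Solubility proteome profiling in Jurkat crude lysate. Lysate was treated with Mg-GTP (0.1-10 mM) for 10 min at room temperature and 3 min at 37 °C, then solubilised with 0.8% NP40 and benzonase, followed by ultracentrifugation. Proteins were quantified by TMT10 LC-MS/MS; the value is the NP40-soluble abundance relative to the NP40-processed vehicle, from 3 independent experiments.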

Target	NP40-soluble protein abundance (concentration: 0.1mM)	NP40-soluble protein abundance (concentration: 0.5mM)	NP40-soluble protein abundance (concentration: 1mM)	NP40-soluble protein abundance (concentration: 2mM)	NP40-soluble protein abundance (concentration: 4mM)	NP40-soluble protein abundance (concentration: 6mM)	NP40-soluble protein abundance (concentration: 8mM)	NP40-soluble protein abundance (concentration: 10mM)
A6NG10 and related entries (UniProt Q969T9)	0.94 ± 0.12	0.936 ± 0.056	0.856 ± 0.082	0.881 ± 0.051	0.866 ± 0.07	0.843 ± 0.057	0.823 ± 0.09	0.848 ± 0.081
C9J2P0 and related entries (UniProt P51965)	0.894 ± 0.11	0.874 ± 0.11	0.88 ± 0.13	0.839 ± 0.15	0.863 ± 0.14	0.831 ± 0.097	0.849 ± 0.097	0.892 ± 0.14
UniProt A6NKF1 and related entries	0.951 ± 0.018	0.878 ± 0.016	0.832 ± 0.058	0.841 ± 0.047	0.881 ± 0.078	0.882 ± 0.053	0.863 ± 0.046	0.924 ± 0.043
C9JXQ9 and related entries (UniProt O95168)	1.01 ± 0.24	1.06 ± 0.21	1.08 ± 0.12	1.17 ± 0.17	1.15 ± 0.13	1.1 ± 0.16	1.15 ± 0.15	1.21 ± 0.27
A9X3U0 and related entries (UniProt Q96GF1)	0.958 ± 0.13	0.957 ± 0.1	0.967 ± 0.091	0.951 ± 0.087	1.02 ± 0.083	0.974 ± 0.037	0.973 ± 0.022	1.03 ± 0.054
